Values from PubChem BioAssay AID1224826 (NIAID, 2016).
Aim: 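Knock-downs that raise or lower Tnf reporter signal after endotoxin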 (primary screen). Cell system: RAW264.7 G9 macrophages from mouse bearing reporters for p65 (GFP) and the Tnf promoter (mCherry). Reagent: siRNA pool against mouse genes, 100 nM. Duration: 16 h of LPS stimulation, after 2 days of siRNA transfection. Conditions: bacterial lipopolysaccharide (Salmonella minnesota R595), 10 ng/ml. Read-out: 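Nuclear mCherry signal of the Tnf promoter reporter measured by imaging after background removal, scaled to each plate median and turned into robust z-scores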. Scale: Tnf reporter robust z-score: higher = stronger Tnf promoter reporter signal after LPS; Tnf reporter intensity: higher = stronger Tnf promoter reporter signal. Hit rule: 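Called active when robust z-score is at most -1.3, matching the median of the Tlr4 knock-down control, or over 3; control wells and wells with under 50 cells never active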. Meaning of the calls: active = Tnf reporter clearly lowered or raised; inactive = no clear change in Tnf reporter.
The deposit covers about 17,000 reagents; this is an unselected part. About 1,110 of them (6.6%) were called active. 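Active means lowered or raised reporter signal; replicate intensities are raw and not normalised per plate.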 Reagents against one gene are numbered here.

target gene	reagent	Tnf reporter robust z-score	fewer than 50 cells in well	Tnf reporter intensity, replicate 1	Tnf reporter intensity, replicate 2	call
Pcdhgb2	1	1.48	enough cells in well	188	230	inactive
Sp4	1	-0.52	enough cells in well	225	182	inactive
Naa60	1	1.15	enough cells in well	323	105	inactive
Sftpc	1	-0.12	enough cells in well	242	229	inactive
Reep1	1		fewer than 50 cells per well; well left out of calls	25.6	77.9	inactive
Ctdsp1	1	-0.5	enough cells in well	185	179	inactive
Ndufs8	1	0.11	enough cells in well	301	189	inactive
Gpd2	1		fewer than 50 cells per well; well left out of calls	124	160	inactive
Col7a1	1	0.34	enough cells in well	284	222	inactive
Glyctk	1	-0.38	enough cells in well	155	128	inactive
Cimip2c	1	0.16	enough cells in well	225	77.8	inactive
B2m	1	-1.67	enough cells in well	69	63.4	active
Myoz3	1	-1.11	enough cells in well	139	62.4	inactive
Mapk1ip1	1		fewer than 50 cells per well; well left out of calls	80.5	94.8	inactive
Hsd3b2	1		fewer than 50 cells per well; well left out of calls	193	169	inactive
Hycc2	1	1.69	enough cells in well	169	267	inactive
Shcbp1	1	-0.28	enough cells in well	87.2	96	inactive
Hs3st2	1		fewer than 50 cells per well; well left out of calls	86.9	45.8	inactive
Dtna	1	-0.47	enough cells in well	218	150	inactive
Usp9y	1	0.41	enough cells in well	280	238	inactive
Elac2	1	-0.29	enough cells in well	225	187	inactive
Pgm5	1	1.05	enough cells in well	181	198	inactive
Psma5	1		fewer than 50 cells per well; well left out of calls	151	68.7	inactive
Mfge8	1	-0.17	enough cells in well	173	143	inactive
Relt	1	0.9	enough cells in well	325	161	inactive
Trim8	1	-0.14	enough cells in well	241	193	inactive
Bst2	1	-0.6	enough cells in well	141	41.7	inactive
Stk10	1		fewer than 50 cells per well; well left out of calls	167	75.7	inactive
Zfp935	1	-1.5	enough cells in well	101	79.9	active
Cngb1	1	-0.49	enough cells in well	174	171	inactive
Cngb1	2	-0.27	enough cells in well	181	202	inactive
Bmf	1		fewer than 50 cells per well; well left out of calls	52.2	96.3	inactive
Tmem54	1		fewer than 50 cells per well; well left out of calls	151	73.3	inactive
Ift20	1	2.31	enough cells in well	370	164	inactive
Acat3	1	-0.03	enough cells in well	201	128	inactive
Serpinh1	1	0.47	enough cells in well	276	290	inactive
Gucy1b1	1	0.22	enough cells in well	249	277	inactive
Casp7	1	0.17	enough cells in well	153	172	inactive
C1s1	1	0.4	enough cells in well	161	190	inactive
Ccdc66	1	2.08	enough cells in well	349	175	inactive

Records listed so far marked active, once more:
target gene	reagent	Tnf reporter robust z-score	fewer than 50 cells in well	Tnf reporter intensity, replicate 1	Tnf reporter intensity, replicate 2	call
B2m	1	-1.67	enough cells in well	69	63.4	active
Zfp935	1	-1.5	enough cells in well	101	79.9	active
